Experimental data as given in PubChem BioAssay AID743255 (National Center for Advancing Translational Sciences (NCATS), 2014).
Out of some 390,000 compounds screened, about 910 (0.23%) were called active. Inconclusive means that the source gave no clear call. Such entries were picked first, then a sample of the others. Calls follow the shape of the dose curve; as a rule, active = well fitted inhibition curve with a large enough effect; inconclusive = small, poorly fitted or top-dose-only effect; inactive = no such curve, though single readings can be large or run the other way. Potencies beside an inconclusive call are fits to weak or partial responses and may not hold up.

Sequences of proteins named here, by UniProt entry; tags and fusion partners are left off. A change or cut given only in a name is not applied to a line headed by its entry.
UniProt O94782: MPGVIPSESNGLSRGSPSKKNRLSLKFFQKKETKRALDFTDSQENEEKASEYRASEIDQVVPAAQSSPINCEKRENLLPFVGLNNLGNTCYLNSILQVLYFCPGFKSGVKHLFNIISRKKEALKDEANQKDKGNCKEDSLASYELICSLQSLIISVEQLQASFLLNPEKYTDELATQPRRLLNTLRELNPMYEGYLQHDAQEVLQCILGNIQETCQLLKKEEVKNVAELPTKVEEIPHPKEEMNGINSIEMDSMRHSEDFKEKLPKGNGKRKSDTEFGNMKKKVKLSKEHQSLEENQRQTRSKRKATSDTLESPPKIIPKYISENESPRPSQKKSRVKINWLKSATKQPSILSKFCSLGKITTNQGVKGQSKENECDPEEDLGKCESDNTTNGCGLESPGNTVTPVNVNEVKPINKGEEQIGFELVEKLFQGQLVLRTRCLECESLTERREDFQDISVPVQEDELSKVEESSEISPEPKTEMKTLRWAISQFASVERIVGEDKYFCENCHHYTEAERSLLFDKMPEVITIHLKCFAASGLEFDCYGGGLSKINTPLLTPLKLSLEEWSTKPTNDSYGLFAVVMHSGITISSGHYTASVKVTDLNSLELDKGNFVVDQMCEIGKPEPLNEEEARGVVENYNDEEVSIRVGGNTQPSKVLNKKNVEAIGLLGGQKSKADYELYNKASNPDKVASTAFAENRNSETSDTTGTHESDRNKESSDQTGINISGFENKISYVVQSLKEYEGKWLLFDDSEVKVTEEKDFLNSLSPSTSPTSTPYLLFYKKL

target: Ubiquitin carboxyl-terminal hydrolase 1 (Homo sapiens) (UniProt O94782); experiment: Inhibitors of USP1/UAF1: Primary Screen; details: recombinant USP1/UAF1, Ub-Rhodamine cleavage fluorescence; activity change, negative = inhibition: at 57.1 µM (top of the series); also: nearly all actives have a fitted effect of over 60% in size
Procedure, shortened: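 1 nM enzyme complex + cpd, 15 min RT; start with Ub-Rho 150nM final; kinetic fluorescence ex 480/em 540, 6 reads q60 s. Buffer 50mM HEPES pH 7.8, 0.5mM EDTA, 0.1 mg/ml BSA, 1mM TCEP, 0.01% Tween-20.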
% is scaled to controls: 0 for no effect and ±100 for the full control effect; potency is read from the fitted curve at half-maximal effect.

Activity change, negative = inhibition, inconclusive:
CC(=O)c1ccc(NC(=O)Cn2cnc3nc4c(cc3c2=O)CC(C)CC4)cc1 (stereo unspecified) -27.3% [inhibitor]

Activity change, negative = inhibition, inactive:
COc1ccccc1OCCCn1cc(C#N)c2ccccc21 -6.4%
CC(C)(C)c1csc(NC(=O)Cn2cnc3ccccc3c2=O)n1 -20.1%
O=[N+]([O-])C(=C1Nc2ccccc2N1)C(Cl)=C(Cl)Cl 0.309%
O=C(c1noc2c1CCCCC2)N1CCN(c2cccc(C(F)(F)F)c2)CC1 -23%
CCOc1ccc(OCc2cccc(C(=O)Nc3ccc(CN4CCCCC4)cc3)c2)cc1 -15.8%
C[C@@H](C(=O)Nc1ccc2c(c1)OCCO2)n1nnc2ccccc2c1=O -22.3%
CCOc1ccc(-c2cc3c(=O)n(Cc4nc(-c5ccc(OC(C)C)cc5)oc4C)ccn3n2)cc1Cl -6.98%
O=[N+]([O-])c1cccnc1N1CCN(Cc2ccc3c(c2)OCO3)CC1 -24.1%
CCOC(=O)c1c(C)[nH]c(C)c1S(=O)(=O)NCC(=O)NCc1ccc(C)cc1 -18.5%
O=c1[nH]c2ccc(NCc3ccc(OCc4ccccc4Cl)cc3)cc2[nH]1 -18.7%
S=C(NNc1ccnc2cc(Cl)ccc12)Nc1ccc(Cl)cc1Cl -26.9%
NC1=NC(=O)/C(=C/c2ccc(Br)cc2)S1 -5.92%
CNC(=O)c1cc2cc(Br)ccc2s1 -10.6%
COc1cc(C(=O)NCCOc2cc(C)cc(C)c2)c(Br)c(OC)c1OC -20.3%
O=C(Cc1cccs1)NC1CC(=O)N(c2cccc(F)c2)C1 (stereo unspecified) -3.6%
Cc1nc([N+](=O)[O-])c(Br)n1Cc1ccc(Cl)c(Cl)c1 -15.9%
Cc1cccc(N(CC(=O)NCc2ccco2)S(=O)(=O)c2ccccc2)c1 -25.6%
COc1ccc(NC(=O)N(C)C[C@H]2Oc3ccc(NC(=O)Nc4c(C)noc4C)cc3C(=O)N([C@H](C)CO)C[C@H]2C)cc1 -30.6%

5 compounds already listed, ordered by molecular weight, falling.
Activity change, negative = inhibition, inactive:
COc1ccc(NC(=O)N(C)C[C@H]2Oc3ccc(NC(=O)Nc4c(C)noc4C)cc3C(=O)N([C@H](C)CO)C[C@H]2C)cc1 -30.6%
CCOc1ccc(-c2cc3c(=O)n(Cc4nc(-c5ccc(OC(C)C)cc5)oc4C)ccn3n2)cc1Cl -6.98%
COc1cc(C(=O)NCCOc2cc(C)cc(C)c2)c(Br)c(OC)c1OC -20.3%
O=[N+]([O-])c1cccnc1N1CCN(Cc2ccc3c(c2)OCO3)CC1 -24.1%
O=[N+]([O-])C(=C1Nc2ccccc2N1)C(Cl)=C(Cl)Cl 0.309%

Following part.

Potency, inconclusive:
CC1=Nn2c(nnc2-c2ccc(F)cc2)SC1 14.1 µM [inhibitor, partial curve, poor fit]
CCOc1ccc(N2CC(NC(=O)/C=C\c3ccc4c(c3)OCO4)CC2=O)cc1 (stereo unspecified) 0.631 µM [inhibitor, full curve, poor fit]
COc1ccc(CNC(=O)CN(C(=O)c2cc3sccc3n2C)C2CCCC2)cc1 0.794 µM [inhibitor, partial curve, poor fit]
Cc1ccc(C)c(N2CCN(C(=O)CCc3nc(-c4ccccc4Cl)no3)CC2)c1 15.8 µM [inhibitor, partial curve]
CCOC(=O)c1cc2c(=O)n3ccccc3nc2n(C(C)C)c1=NC(=O)c1cc2ccccc2o1 0.0282 µM [inhibitor, full curve]
CCc1cc(=O)oc2cc(C)c(CN3CCCC3)c(O)c12 31.6 µM [inhibitor, single point]
CN(C)S(=O)(=O)c1cccc(NC(=O)COC(=O)c2ccc([N+](=O)[O-])o2)c1 44.7 µM [inhibitor, partial curve, poor fit]
CC(C)=CCC[C@](C)(O)C1CC[C@]2(C)C1[C@H](O)CC1[C@@]3(C)CC[C@H](O[C@@H]4O[C@H](CO)[C@@H](O)[C@H](O)[C@H]4O[C@@H]4O[C@H](CO)[C@@H](O)[C@H](O)[C@H]4O)C(C)(C)C3CC[C@]12C (stereo partly specified) 0.355 µM [inhibitor, full curve, poor fit]
COc1ccccc1/C=N/N1C(=O)C2C3C=CC(CC3)C2C1=O (stereo unspecified) 3.16 µM [inhibitor, partial curve]
Cc1ccc(CSCCNC(=O)/C=C/c2ccccc2Cl)cc1 56.2 µM [inhibitor, partial curve, poor fit]
O=C(NCSc1ccnc(SCNC(=O)c2ccccc2)n1)c1ccccc1 35.5 µM [inhibitor, partial curve]
CC(C)COc1ccc(C2=NC(c3ccncc3)=Nc3ccc(F)cc3N2)cc1 2.51 µM [inhibitor, partial curve]
C=CCOc1ccc(/C=C(\C#N)C(=O)Nc2ccccn2)cc1OC 63.1 µM [inhibitor, single point]
O=C1CCC(C(=O)OCC(=O)N2N=C3/C(=C\c4ccccc4)CCCC3C2c2ccccc2)N1 (stereo unspecified) 15.8 µM [inhibitor, partial curve]
NC(=S)n1[nH]c(-c2ccc([N+](=O)[O-])cc2)c(N=Nc2cccc([N+](=O)[O-])c2)c1=O 39.8 µM [inhibitor, partial curve]
Nc1ccc(-c2nc3ccc(N)cc3o2)cc1 3.98 µM [inhibitor, full curve]
C=CC[C@@H](CC(=O)NCCO)C(=O)N[C@H](C)COC(=O)[C@@H](CC=C)Cc1ccc(F)cc1 50.1 µM [inhibitor, partial curve, poor fit]
CCOc1ccc(N(C)c2ccc(/C=C3/SC(=S)NC3=O)cc2)cc1 28.2 µM [inhibitor, partial curve]
Cc1ccccc1-c1nc(CN2CCC(C(=O)NCCc3ccccc3)CC2)c(C)o1 11.2 µM [inhibitor, partial curve, poor fit]
O=C(C1=C[C@H](c2ccc(C(F)(F)F)cc2)C[C@H](OCc2ccc(CO)cc2)O1)N1CCCCCCC1 79.4 µM [inhibitor, partial curve, poor fit]
CCCNC(=O)c1nc(C)n(-c2ccc([N+](=O)[O-])cc2)n1 31.6 µM [inhibitor, partial curve]
COC(=O)c1cc(C(=O)OCC(=O)NC(=O)NCc2ccccc2)cc([N+](=O)[O-])c1 79.4 µM [inhibitor, partial curve, poor fit]
CCCCN(CC)CCCNC(=O)Cn1ncc2c3ccccc3n(Cc3ccccc3F)c2c1=O 63.1 µM [inhibitor, partial curve, poor fit]
CC1=NN(c2ccc(C)c(C)c2)C(=O)C1C(c1cccc(O)c1)C1C(=O)N(c2ccc(C)c(C)c2)N=C1C (stereo unspecified) 35.5 µM [inhibitor, partial curve]
CCOc1ccc(N2CC(NC(=O)c3ccc(S(=O)(=O)N4CCCC4)cc3)CC2=O)cc1 (stereo unspecified) 7.94 µM [inhibitor, partial curve, poor fit]
CCOC(=O)c1c(NC(=O)CCC(=O)O)sc2c1CC(C)(C)OC2 7.08 µM [inhibitor, full curve, poor fit]
CCN1C(=O)[C@H]2[C@@H](c3ccc(-c4ccccc4)c(OC)c3)N[C@@](Cc3ccccc3)(C(=O)OC)[C@H]2C1=O 0.112 µM [inhibitor, full curve, poor fit]
CCCCc1nn(-c2cc(Cl)ccc2OC)c2c1C(=O)CC(C)(C)C2 39.8 µM [inhibitor, partial curve]
CC(OC(=O)c1c2c(nc3ccccc13)/C(=C\c1ccc3c(c1)OCO3)CCC2)C(=O)Nc1ccc(S(N)(=O)=O)cc1 (stereo unspecified) 8.91 µM [inhibitor, partial curve, poor fit]
Fc1ccc(-n2c(Cc3ccccc3)nnc2SCc2nc(-c3ccc(Cl)cc3)no2)cc1 35.5 µM [inhibitor, partial curve]
O=C(NCCc1ccccc1)c1cccc(NC(=O)c2ccccc2)c1 35.5 µM [inhibitor, partial curve]
O=C1/C(=C\c2ccc([N+](=O)[O-])cc2)CS(=O)(=O)C/C1=C/c1ccc([N+](=O)[O-])cc1 35.5 µM [inhibitor, partial curve, poor fit]
COc1ccc(-n2nc(C(=O)NCC(=O)N3CCOCC3)c3ccccc3c2=O)c(OC)c1 3.98 µM [inhibitor, single point]
O=[N+]([O-])c1ccc(NN=Cc2ccco2)nc1 4.47 µM [inhibitor, full curve, poor fit]
Cc1ccc([N+](=O)[O-])cc1S(=O)(=O)N1CCn2cccc2C1c1ccccc1F (stereo unspecified) 0.282 µM [inhibitor, full curve]
Cc1ccc(NC(=O)CNC(=O)Cn2c(C)cc3ccccc3c2=O)cc1F 0.158 µM [inhibitor, full curve, poor fit]
CN1C(=O)CSC1=Nc1ccc(Br)cc1 28.2 µM [inhibitor, partial curve]
CCOC(=O)c1c(C)oc2ncnc(N3CCN(c4ccccc4F)CC3)c12 7.08 µM [inhibitor, partial curve, poor fit]
COc1ccc(NC(=O)CSc2oc(-c3cccs3)nc2S(=O)(=O)c2ccc(C)cc2)c(OC)c1 5.62 µM [inhibitor, partial curve, poor fit]
Cc1ccc(NC(=O)C2CCN(S(=O)(=O)c3c(C)noc3C)CC2)c(C)c1 5.01 µM [inhibitor, full curve, poor fit]
COc1ccc(C2(CNC(=O)c3ccccc3)CCOCC2)cc1 7.08 µM [inhibitor, single point]
Cc1ccc(S(=O)(=O)N(CC(=O)NCC2CCCO2)C2CCCCC2)cc1 (stereo unspecified) 5.01 µM [inhibitor, single point]
